Data on two substances can be found in PMC7782846.

By UniProt entry, the sequences of proteins in these tests, tags left out.
UniProt P09405: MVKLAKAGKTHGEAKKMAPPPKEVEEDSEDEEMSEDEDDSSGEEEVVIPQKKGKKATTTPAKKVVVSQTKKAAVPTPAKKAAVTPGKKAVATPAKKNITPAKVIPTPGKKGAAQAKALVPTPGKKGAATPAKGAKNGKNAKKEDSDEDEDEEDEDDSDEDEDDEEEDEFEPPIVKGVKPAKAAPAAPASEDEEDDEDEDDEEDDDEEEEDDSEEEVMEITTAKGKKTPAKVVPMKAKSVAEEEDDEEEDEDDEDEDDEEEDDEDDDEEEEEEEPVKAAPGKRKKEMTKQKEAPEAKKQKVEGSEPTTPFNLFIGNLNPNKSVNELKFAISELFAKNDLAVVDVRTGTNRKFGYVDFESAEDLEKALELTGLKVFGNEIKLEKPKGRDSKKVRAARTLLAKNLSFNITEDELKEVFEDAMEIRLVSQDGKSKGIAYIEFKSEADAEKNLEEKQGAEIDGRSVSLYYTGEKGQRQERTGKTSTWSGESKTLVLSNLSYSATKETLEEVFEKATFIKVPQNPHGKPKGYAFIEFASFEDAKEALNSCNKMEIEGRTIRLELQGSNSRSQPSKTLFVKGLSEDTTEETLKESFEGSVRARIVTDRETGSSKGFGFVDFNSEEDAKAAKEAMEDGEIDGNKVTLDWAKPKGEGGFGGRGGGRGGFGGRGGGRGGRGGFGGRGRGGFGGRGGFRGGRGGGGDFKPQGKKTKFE
UniProt Q64310: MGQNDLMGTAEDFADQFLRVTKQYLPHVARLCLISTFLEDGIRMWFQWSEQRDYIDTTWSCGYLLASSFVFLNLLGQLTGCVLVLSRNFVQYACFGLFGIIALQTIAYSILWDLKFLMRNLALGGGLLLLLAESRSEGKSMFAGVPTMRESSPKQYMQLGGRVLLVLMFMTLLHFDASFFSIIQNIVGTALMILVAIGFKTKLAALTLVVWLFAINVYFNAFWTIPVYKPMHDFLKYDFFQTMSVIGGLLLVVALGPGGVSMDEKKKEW

For this experiment, the target named is T1, STING (bait of the mass spectrometry of STING-binding proteins) (UniProt Q3TBT3).
T1 sequence: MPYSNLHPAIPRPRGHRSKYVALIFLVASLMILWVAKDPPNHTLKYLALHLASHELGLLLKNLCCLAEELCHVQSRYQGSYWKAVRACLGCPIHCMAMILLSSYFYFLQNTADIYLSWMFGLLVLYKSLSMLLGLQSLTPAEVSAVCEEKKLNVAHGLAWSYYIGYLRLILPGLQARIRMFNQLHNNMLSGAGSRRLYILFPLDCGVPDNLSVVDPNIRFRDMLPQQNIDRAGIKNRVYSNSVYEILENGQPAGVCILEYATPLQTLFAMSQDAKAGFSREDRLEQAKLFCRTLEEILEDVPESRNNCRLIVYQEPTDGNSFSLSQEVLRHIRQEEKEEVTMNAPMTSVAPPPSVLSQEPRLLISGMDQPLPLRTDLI
Kind of experiment: affinity purification with mass spectrometry; lysate (1% Triton X-100, 150 mM NaCl, pH 7.2) on anti-FLAG M2 Affinity Gel overnight at 4 °C, FLAG peptide elution, tryptic digest, LC-MS/MS.

No constants are given. Whether binding was seen depends on the method and setting. In cells and extracts the contact can be indirect. These calls come from enrichment with a bait or labelling near it, and not all partners need be listed.

Regarding Ncl (from UniProt P09405 1-707), the binding result is reported as “binds”. With “Surf4 (endogenous, hit of the mass spectrometry) (from UniProt Q64310 1-269)”, the binding result was “binds”.
